Results taken from the supplement of paper PMC10849652.
The list shows a part of the results.

By UniProt entry, the sequences of proteins in these tests, tags left out. Where a name states a change or a piece, a line headed by the entry shows the natural chain unless it says otherwise.
UniProt P52701: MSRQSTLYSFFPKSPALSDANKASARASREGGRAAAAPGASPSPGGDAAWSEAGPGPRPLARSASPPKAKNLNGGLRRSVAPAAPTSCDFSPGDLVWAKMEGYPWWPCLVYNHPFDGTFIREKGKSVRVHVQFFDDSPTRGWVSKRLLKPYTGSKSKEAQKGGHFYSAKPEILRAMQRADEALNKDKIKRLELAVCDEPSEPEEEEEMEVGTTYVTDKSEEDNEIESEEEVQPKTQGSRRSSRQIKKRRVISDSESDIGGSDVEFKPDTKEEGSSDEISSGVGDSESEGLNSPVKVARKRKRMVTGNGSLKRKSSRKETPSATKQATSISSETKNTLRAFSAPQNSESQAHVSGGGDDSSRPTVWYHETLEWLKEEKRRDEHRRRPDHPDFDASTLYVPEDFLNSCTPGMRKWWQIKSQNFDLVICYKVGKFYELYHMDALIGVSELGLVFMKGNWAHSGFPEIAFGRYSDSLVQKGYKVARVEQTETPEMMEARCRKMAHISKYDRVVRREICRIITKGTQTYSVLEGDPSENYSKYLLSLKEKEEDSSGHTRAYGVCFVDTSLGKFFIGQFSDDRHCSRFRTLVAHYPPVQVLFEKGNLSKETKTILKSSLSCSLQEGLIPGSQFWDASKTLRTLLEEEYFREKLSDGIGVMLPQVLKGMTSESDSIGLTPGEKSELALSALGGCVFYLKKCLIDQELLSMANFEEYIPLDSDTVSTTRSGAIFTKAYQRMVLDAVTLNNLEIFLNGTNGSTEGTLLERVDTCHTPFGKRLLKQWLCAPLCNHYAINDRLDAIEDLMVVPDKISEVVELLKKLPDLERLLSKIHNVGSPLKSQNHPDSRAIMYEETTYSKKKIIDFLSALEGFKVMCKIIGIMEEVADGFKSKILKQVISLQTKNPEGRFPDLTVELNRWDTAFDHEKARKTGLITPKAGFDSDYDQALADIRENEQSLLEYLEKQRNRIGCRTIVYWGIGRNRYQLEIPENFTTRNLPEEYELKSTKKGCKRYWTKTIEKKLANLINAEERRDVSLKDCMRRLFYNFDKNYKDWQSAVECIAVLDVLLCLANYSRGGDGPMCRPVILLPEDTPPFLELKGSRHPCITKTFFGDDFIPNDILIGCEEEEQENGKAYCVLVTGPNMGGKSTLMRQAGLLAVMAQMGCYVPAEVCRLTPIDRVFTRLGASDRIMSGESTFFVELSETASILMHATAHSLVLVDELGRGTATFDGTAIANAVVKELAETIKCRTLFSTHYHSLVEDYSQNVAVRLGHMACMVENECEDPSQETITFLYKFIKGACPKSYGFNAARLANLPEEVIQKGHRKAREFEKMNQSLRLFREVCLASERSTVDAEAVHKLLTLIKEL
UniProt P42898: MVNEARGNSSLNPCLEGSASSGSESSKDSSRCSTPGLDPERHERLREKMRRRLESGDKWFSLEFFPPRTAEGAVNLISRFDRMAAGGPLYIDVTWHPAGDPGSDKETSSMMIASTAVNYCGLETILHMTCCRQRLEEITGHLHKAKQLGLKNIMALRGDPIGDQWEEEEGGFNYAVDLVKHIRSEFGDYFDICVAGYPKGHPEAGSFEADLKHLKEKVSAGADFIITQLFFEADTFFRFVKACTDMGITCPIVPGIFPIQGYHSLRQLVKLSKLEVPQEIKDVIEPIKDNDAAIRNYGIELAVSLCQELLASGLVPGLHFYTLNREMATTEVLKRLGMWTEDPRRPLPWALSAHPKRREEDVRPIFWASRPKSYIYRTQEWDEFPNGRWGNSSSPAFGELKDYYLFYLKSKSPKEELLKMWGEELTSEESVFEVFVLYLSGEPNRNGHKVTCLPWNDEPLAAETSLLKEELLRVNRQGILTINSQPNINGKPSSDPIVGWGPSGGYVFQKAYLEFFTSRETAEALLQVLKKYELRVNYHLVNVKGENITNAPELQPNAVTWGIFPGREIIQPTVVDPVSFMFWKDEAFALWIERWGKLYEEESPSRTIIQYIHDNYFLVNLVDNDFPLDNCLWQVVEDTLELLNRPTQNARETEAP
UniProt P03923, whole entry, looked up: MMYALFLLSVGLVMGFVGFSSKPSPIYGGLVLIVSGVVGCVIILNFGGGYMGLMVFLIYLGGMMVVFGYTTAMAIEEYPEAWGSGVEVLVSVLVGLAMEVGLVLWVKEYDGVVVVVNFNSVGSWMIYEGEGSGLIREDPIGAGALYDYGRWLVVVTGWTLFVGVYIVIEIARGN
UniProt Q9BT17: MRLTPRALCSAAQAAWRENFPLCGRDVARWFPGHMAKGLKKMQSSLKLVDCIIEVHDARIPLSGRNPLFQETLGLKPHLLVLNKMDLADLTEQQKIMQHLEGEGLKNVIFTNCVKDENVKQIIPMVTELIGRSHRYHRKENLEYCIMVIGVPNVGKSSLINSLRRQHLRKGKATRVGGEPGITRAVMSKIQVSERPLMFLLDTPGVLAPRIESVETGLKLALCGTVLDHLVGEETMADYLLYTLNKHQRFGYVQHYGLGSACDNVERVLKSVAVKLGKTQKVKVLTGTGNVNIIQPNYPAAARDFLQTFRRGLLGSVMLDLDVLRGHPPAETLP
UniProt Q14872: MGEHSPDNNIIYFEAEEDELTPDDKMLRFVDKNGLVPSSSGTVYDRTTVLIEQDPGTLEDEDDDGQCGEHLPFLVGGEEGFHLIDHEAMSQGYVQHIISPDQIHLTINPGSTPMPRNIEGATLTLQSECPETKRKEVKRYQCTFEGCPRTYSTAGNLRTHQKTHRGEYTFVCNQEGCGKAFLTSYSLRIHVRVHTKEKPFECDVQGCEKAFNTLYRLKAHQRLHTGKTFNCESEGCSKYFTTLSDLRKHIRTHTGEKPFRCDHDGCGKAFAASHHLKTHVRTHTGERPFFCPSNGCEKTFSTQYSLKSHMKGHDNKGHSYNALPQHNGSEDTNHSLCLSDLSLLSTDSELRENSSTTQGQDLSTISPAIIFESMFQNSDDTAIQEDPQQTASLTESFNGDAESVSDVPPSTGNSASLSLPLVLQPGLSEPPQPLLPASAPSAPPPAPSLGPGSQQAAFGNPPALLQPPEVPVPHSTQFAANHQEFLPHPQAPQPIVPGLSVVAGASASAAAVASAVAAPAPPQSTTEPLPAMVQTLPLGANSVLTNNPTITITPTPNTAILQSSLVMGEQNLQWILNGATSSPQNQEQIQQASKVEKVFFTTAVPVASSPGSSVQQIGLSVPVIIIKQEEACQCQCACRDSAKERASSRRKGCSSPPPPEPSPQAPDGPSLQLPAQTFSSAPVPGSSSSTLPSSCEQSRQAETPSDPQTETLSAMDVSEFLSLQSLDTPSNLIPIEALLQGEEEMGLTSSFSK
UniProt Q49AM1: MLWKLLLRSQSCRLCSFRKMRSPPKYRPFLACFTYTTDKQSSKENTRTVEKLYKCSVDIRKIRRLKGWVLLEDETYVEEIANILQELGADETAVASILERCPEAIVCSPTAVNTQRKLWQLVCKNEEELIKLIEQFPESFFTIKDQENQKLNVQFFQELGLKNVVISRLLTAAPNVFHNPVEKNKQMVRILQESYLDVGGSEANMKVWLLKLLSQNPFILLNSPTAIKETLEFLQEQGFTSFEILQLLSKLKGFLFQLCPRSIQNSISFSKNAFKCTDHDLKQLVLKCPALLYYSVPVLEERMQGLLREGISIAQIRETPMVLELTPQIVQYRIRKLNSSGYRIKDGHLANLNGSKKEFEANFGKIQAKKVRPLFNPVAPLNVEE
UniProt Q96DP5: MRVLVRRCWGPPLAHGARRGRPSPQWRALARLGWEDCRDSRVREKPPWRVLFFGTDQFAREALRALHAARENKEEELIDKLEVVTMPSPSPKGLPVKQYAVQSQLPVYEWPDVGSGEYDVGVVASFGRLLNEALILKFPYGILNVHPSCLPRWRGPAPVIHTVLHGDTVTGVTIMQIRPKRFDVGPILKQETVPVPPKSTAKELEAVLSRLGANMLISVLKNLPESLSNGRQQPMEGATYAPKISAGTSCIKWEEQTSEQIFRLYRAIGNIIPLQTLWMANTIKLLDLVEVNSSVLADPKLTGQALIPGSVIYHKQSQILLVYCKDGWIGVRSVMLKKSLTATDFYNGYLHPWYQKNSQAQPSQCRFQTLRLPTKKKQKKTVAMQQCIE

Columns and labels:
Test in all cases: log2 fold change, soluble protein after heating vs DMSO (PISA); higher = thermal stabilisation; K562 lysate, 10 uM; active = over 0.2 and 3.5 SD of the protein, either way, in both replicates (recomputed)
[1] = compound: C1=CC=C(C=C1)[C@H](COC2=CC3=C(C=C2)NC(=O)N3)NC(=O)C4=CC=CN(C4=O)CC5=CC(=C(C=C5)F)F
Method in brief: (§1)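 Log-two fold change in thermal stability relative to solvent controls is reported from duplicates. For each sample, crude K562 extract from dounce-homogenised pellets in PBS pH 7.4 with 1 mM MgCl2, at 1 mg/mL protein, was treated with 10 μM compound for 30 min. Aliquots heated for 3 min across 48°C-58°C were pooled, brought to 0.5% NP-40 at 4°C and cleared at 21,000xg for 90 min. The supernatant was quantified by TMTpro 16plex LC-MS/MS with channel sums equalised.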

[2] = compound: CC1=C(SC2=C1C(=N[C@H](C3=NN=C(N32)C)CC(=O)N)C4=CC=C(C=C4)Cl)C
Method in brief: as §1

[3] = compound: CC1=C2C(=CC=C1)N=C(N(C2=O)C3=CC=CC=C3C)CN4C=NC5=C(N=CN=C54)N
Method in brief: as §1

[4] = compound: Cc1sc2c(c1C)C(c1ccc(Cl)cc1)=N[C@@H](CC(=O)OC(C)(C)C)c1nnc(C)n1-2
Method in brief: as §1

[5] = compound: c1ccc([C@@H]2C[C@H]2NC2CCNCC2)cc1
Method in brief: as §1

Measured: log2 fold change

MSH6 (UniProt P52701)
inactive: [1] -0.021 | [2] 0.01 | [3] 0.034 | [4] 0.006 | [5] 0.014

MRPL45 (UniProt Q9BRJ2)
inactive: [1] -0.048 | [2] 0.033 | [3] -0.03 | [4] 0.05 | [5] 0.019

MRPL33 (UniProt O75394)
inactive: [1] -0.085 | [2] -0.029 | [3] -0.061 | [4] 0.085 | [5] -0.001

MRPL58 (UniProt Q14197)
inactive: [1] 0.011 | [2] 0.029 | [3] 0.075 | [4] -0.002 | [5] 0.081

2 successive entries out of the list so far, for reference:
MSH6 (UniProt P52701)
inactive: [1] -0.021 | [2] 0.01 | [3] 0.034 | [4] 0.006 | [5] 0.014

MRPL45 (UniProt Q9BRJ2)
inactive: [1] -0.048 | [2] 0.033 | [3] -0.03 | [4] 0.05 | [5] 0.019

Next results

MRPL38 (UniProt Q96DV4)
inactive: [1] 0.006 | [2] 0.066 | [3] -0.002 | [4] -0.037 | [5] 0.068

MTHFR isoform 2 (UniProt P42898)
inactive: [1] -0.004 | [2] 0.01 | [3] 0.003 | [4] -0.028 | [5] 0.014

MRPL3 (UniProt P09001)
inactive: [1] 0 | [2] 0.023 | [3] 0.036 | [4] 0.012 | [5] -0.01

MT-ND6 (UniProt P03923)
inactive: [5] -0.036

MRPL27 (UniProt Q9P0M9)
inactive: [1] 0.002 | [2] -0.046 | [4] -0.048 | [5] 0.208

MTG1 (UniProt Q9BT17)
inactive: [5] 0.008

MTF1 (UniProt Q14872)
inactive: [5] 0.122

MTERF2 (UniProt Q49AM1)
inactive: [4] -0.254

MTFMT (UniProt Q96DP5)
inactive: [4] 0.25 | [5] 0.074
